Laboratory results reported in US9134318B2, “Detection of oxidized polypeptides” (Purdue Research Foundation, priority 2009, dated 2015).
Where “and” joins values, the source holds several entries; their conditions need not be identical. Identical values can stand only once. No dose or concentration is given here for some results.

Test system: carbonylated peptides (carbonylation sites) of plasma proteins
Assay: SRM relative quantification of carbonylation sites, diabetic vs lean rat plasma (Example 5, Table 15)
Format: in vivo, Zucker diabetic and lean rats
Details: for Ratio (diabetic plasma pooled sample/lean plasma pooled sample) replicate 1 / Ratio (diabetic plasma pooled sample/lean plasma pooled sample) replicate 2: SRM of the peptide carrying the carbonylation site (modification and site in the same table row), pooled Zucker diabetic vs lean rat plasma; for Average: average of replicate 1 and 2 ratios, diabetic/lean pooled plasma, SRM, per carbonylation site; for Average (diabetic/lean rat plasma pooled sample): SRM ratio

Substance	Ratio (diabetic plasma pooled sample/lean plasma pooled sample) replicate 1	Ratio (diabetic plasma pooled sample/lean plasma pooled sample) replicate 2	Average	Average (diabetic/lean rat plasma pooled sample) (carbonylated peptide: Biotinylated deoxyglucosone adduct, site 49 (Gi|204352))	Average (diabetic/lean rat plasma pooled sample) (carbonylated peptide: Biotinylated HNE adduct, site 69 (gi|60678292))	Average (diabetic/lean rat plasma pooled sample) (carbonylated peptide: Biotinylated glyoxal, site 17 (gi|60678292))	Average (diabetic/lean rat plasma pooled sample) (carbonylated peptide: Biotinylated malodialdehyde, site 12 (gi|60678292))	Average (diabetic/lean rat plasma pooled sample) (carbonylated peptide: Biotinylated oxidized lysine, site 77 (Gi|204570))	Average (diabetic/lean rat plasma pooled sample) (carbonylated peptide: Biotinylated oxidized arginine, site 656 (gi|8393024))	Average (diabetic/lean rat plasma pooled sample) (carbonylated peptide: Biotinylated oxidized arginine, site 688 (gi|8393024))
hemoglobin beta-chain	0.79	1.25	1.02	1.02	–	–	–	–	–	–
hemoglobin alpha 2 chain	25.88 and 1.94 and 0.52	14.54 and 2.06 and 0.87	20.21 and 2.00 and 0.69	–	20.21	0.52	2.00	–	–	–
major beta-hemoglobin	7.19	2.21	4.70	–	–	–	–	4.70	–	–
Albumin [Albumin [Rattus norvegicus]]	1.20	1.00	1.10	–	–	–	–	–	–	–
complement component 3	2.71 and 1.62	2.57 and 1.09	2.64 and 1.35	–	–	–	–	–	1.35	2.64
